Data source: PubChem BioAssay AID686937 (Drosophila RNAi Screening Center, 2013)

- Aim: 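Genes in the fly needed for secretion of protein constitutively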 (primary screen)
- System: Drosophila S2 cells expressing secreted horseradish peroxidase
- Reagent: long dsRNA against Drosophila genes
- Duration: about 5.5 days (5 days dsRNA, then 12 h reporter induction)
- Treatment: reporter expression induced after 5 days of dsRNA, read 12 h later; inducer not stated
- Read-out: 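Chemiluminescent measurement of peroxidase in the medium 12 h after reporter induction, following 5 days of dsRNA, given as a z-score per plate; higher means more secretion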
- Direction: z-score: higher = more reporter secreted into medium
The deposit covers about 23,000 reagents; below is a random part of those with a known target gene and a result. 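Reduced-secretion tags in replicate 1 do not always agree with the z-scores; no criterion for assigning the tags was given.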 Reagents against one gene are numbered here. Reagent sequences are not shown. Not stated in the record: the amount of reagent.

| z-score, replicate 1 | z-score, replicate 2 | z-score, replicate 3 | z-score, replicate 4 | phenotype, replicate 1 | predicted target | dsRNA no. |
| --- | --- | --- | --- | --- | --- | --- |
| 0.63 | 0.11 | – | – | – | Cyp6a9 | 1 |
| 0.26 | 0.29 | – | – | – | CG31145 | 1 |
| 0.16 | 0.22 | – | – | – | CG31145 | 2 |
| -2.27 | -1.04 | – | – | reduced secretion | CG31145 | 3 |
| 0.17 | 0.5 | – | – | – | CG31145 | 4 |
| 0.39 | 0.3 | – | – | – | Obp83b | 1 |
| 0.18 | 0.46 | -0.21 | 0.56 | – | Alg13 | 1 |
| -0.6 | -0.44 | – | – | – | APC10 | 1 |
| 0.33 | 0.06 | – | – | – | CG3916 | 1 |
| 0.48 | 0.43 | – | – | – | Toll-9 | 1 |
| 0.12 | 0.23 | – | – | – | Alg9 | 1 |
| -0.03 | 0.25 | – | – | – | CG4887 | 1 |
| -0.72 | -0.19 | – | – | reduced secretion | CG4887 | 2 |
| 0.43 | 0.37 | – | – | – | CG13101 | 1 |
| -2.56 | -5.26 | – | – | reduced secretion | mRNA-cap | 1 |
| 0.53 | 0.35 | – | – | – | CG11379 | 1 |
| -0.08 | 0.33 | – | – | – | drm | 1 |
| 0.27 | 0.27 | – | – | – | Hesr | 1 |
| 0.39 | 0.65 | – | – | – | CG6550 | 1 |
| 1.04 | 0.73 | – | – | – | IntS1 | 1 |
| 0.52 | 0.74 | – | – | – | CG11619 | 1 |
| 0.23 | 0.22 | – | – | – | CG9356 | 1 |
| -0.12 | 0.04 | – | – | – | SecCl | 1 |
| 0.25 | 0.04 | – | – | – | CG12911 | 1 |
| 0.29 | 0.16 | -0.03 | -1.18 | – | GABA-B-R2 | 1 |
| 0.36 | 0.32 | – | – | – | CG33679 | 1 |
| 0.3 | 0.23 | – | – | – | CG13751 | 1 |
| 0.28 | 0.26 | – | – | – | CG12895 | 1 |
| -0.09 | 0.28 | – | – | – | CG11658 | 1 |
| 0.33 | 0.24 | – | – | – | CG14861 | 1 |
| 0.23 | 0.07 | – | – | – | CG6154 | 1 |
| -0.08 | 0.17 | – | – | – | CG33223 | 1 |
| 0.3 | -0.38 | – | – | – | Tm2 | 1 |
| 0.14 | 0.22 | – | – | – | Pgd | 1 |
| 0.83 | 0.42 | – | – | – | Gr36c | 1 |
| 0.17 | 0.27 | – | – | – | CG31659 | 1 |
| 0.5 | 0.69 | – | – | – | CG6403 | 1 |
| 0.33 | 0.27 | – | – | – | P32 | 1 |
| -1.18 | -0.91 | -0.75 | 0.11 | – | slbo | 1 |
| 0.5 | 0.39 | – | – | – | Fbxl7 | 1 |
| -0.51 | -0.67 | – | – | – | MED31 | 1 |
| -2.21 | -0.15 | -0.45 | -0.06 | – | CG11902 | 1 |
| 0.03 | 0.18 | – | – | – | CG14340 | 1 |
| 0.37 | 0.32 | – | – | – | cysu | 1 |
| -0.03 | -0.16 | – | – | – | Ada2b | 1 |
| 0.45 | 0.31 | – | – | – | CG8839 | 1 |
| 0.43 | 0.43 | 0.49 | 0.39 | – | CG13227 | 1 |
| 0.15 | 0.08 | – | – | – | CG16989 | 1 |
| 0.41 | 0.33 | – | – | – | MSBP | 1 |
| -0.07 | -0.15 | – | – | – | CG14756 | 1 |
| 0.14 | 0.44 | – | – | – | CG15734 | 1 |
| -0.42 | 0.15 | – | – | – | CstF64 | 1 |
| 0.3 | 0.26 | – | – | – | CG13185 | 1 |
| 0.48 | 0.27 | – | – | – | CG15461 | 1 |
| 0.4 | 0.45 | – | – | – | CG14684 | 1 |
| 0.01 | 0.42 | – | – | – | CG33770 | 1 |
| 0.4 | 0.04 | – | – | – | CG13282 | 1 |
| -0.24 | 0.16 | – | – | – | CG12155 | 1 |
| 0.55 | 0.42 | – | – | – | CG11523 | 1 |
| 0.41 | 0.4 | – | – | – | Cyp6a21 | 1 |
| 0.22 | 0.04 | – | – | – | CG9150 | 1 |
| -1.87 | -1.66 | – | – | reduced secretion | CG9667 | 1 |
| 0.78 | 0.67 | – | – | – | CG33158 | 1 |
| 0.37 | 0.2 | – | – | – | CG33158 | 2 |
| -0.01 | 0.17 | – | – | – | CG33158 | 3 |
| 0.4 | 0.29 | -0.08 | -0.17 | – | CG8026 | 1 |
| 0.26 | 0.3 | – | – | – | CG8026 | 2 |
| 0.37 | 0.59 | – | – | – | Ten-m | 1 |
| 0.27 | 0.18 | – | – | – | Ten-m | 2 |
| 0.3 | 0.29 | – | – | – | CG1773 | 1 |
| 0.09 | 0.06 | – | – | – | mRpL38 | 1 |
| -0.13 | 0.52 | – | – | – | Cip4 | 1 |
| -1.05 | -0.94 | – | – | – | Cip4 | 2 |
| -0.79 | 0.47 | – | – | – | Cip4 | 3 |
| -0.66 | 0.04 | – | – | – | Spn75F | 1 |
| -0.22 | -0.1 | – | – | – | CG10417 | 1 |
| -3.21 | -1.82 | – | – | reduced secretion | Prp3 | 1 |
| 0.16 | 0.31 | – | – | – | JhI-26 | 1 |
| -0.15 | -0.08 | – | – | – | mspo | 1 |
| 0.19 | 0.15 | – | – | – | cmb | 1 |
| 0.24 | 0.18 | – | – | – | Boot | 1 |
| 0.46 | 0.58 | – | – | – | CG17190 | 1 |
| -0.02 | -0.8 | – | – | – | TwdlZ | 1 |
| 0.34 | 0.13 | – | – | – | nmd | 1 |
| -0.63 | -0.41 | – | – | – | Wdr33 | 1 |
| 0.23 | 0.4 | – | – | – | CG8292 | 1 |
| 0.29 | -0.03 | – | – | – | Gr5a | 1 |
| 0.47 | 0.49 | – | – | – | CG8746 | 1 |
| 0.1 | -0.68 | – | – | – | d-cup | 1 |
| 0.1 | -0.18 | – | – | – | Cyp49a1 | 1 |
| 0.24 | 0.22 | – | – | – | Cyp49a1 | 2 |
| 0.19 | 0.26 | – | – | – | CG15083 | 1 |
| 0.08 | 0.21 | – | – | – | disp | 1 |
| 0.21 | 0.14 | – | – | – | Oatp33Ea | 1 |
| 0.55 | 0.2 | – | – | – | qsm | 1 |
| -0.14 | 0.37 | – | – | – | qsm | 2 |
| 0.26 | 0.62 | – | – | – | CkIalpha | 1 |
| 2.48 | 1.5 | – | – | – | CkIalpha | 2 |
| 0.27 | 0.4 | 0.37 | 0.23 | – | CG13110 | 1 |
| 0.29 | 0.13 | – | – | – | ScsbetaG | 1 |
| 0.09 | -0.51 | – | – | – | CG2444 | 1 |
| -0.08 | 0.19 | – | – | – | CG30203 | 1 |
| -0.32 | 0.15 | – | – | – | sqh | 1 |
| -0.09 | -0.01 | – | – | – | CG32832 | 1 |

A run of entries from the list above, for reference:
| z-score, replicate 1 | z-score, replicate 2 | z-score, replicate 3 | z-score, replicate 4 | phenotype, replicate 1 | predicted target | dsRNA no. |
| --- | --- | --- | --- | --- | --- | --- |
| 0.48 | 0.27 | – | – | – | CG15461 | 1 |
| 0.4 | 0.45 | – | – | – | CG14684 | 1 |
| 0.01 | 0.42 | – | – | – | CG33770 | 1 |
| 0.4 | 0.04 | – | – | – | CG13282 | 1 |
| -0.24 | 0.16 | – | – | – | CG12155 | 1 |
| 0.55 | 0.42 | – | – | – | CG11523 | 1 |
| 0.41 | 0.4 | – | – | – | Cyp6a21 | 1 |
| 0.22 | 0.04 | – | – | – | CG9150 | 1 |
